24 targets from the supplement of paper PMC10849652 can be followed below.

By UniProt entry, the sequences of proteins in these tests, tags left out. Where a name states a change or a piece, a line headed by the entry shows the natural chain unless it says otherwise.
UniProt Q9BS26: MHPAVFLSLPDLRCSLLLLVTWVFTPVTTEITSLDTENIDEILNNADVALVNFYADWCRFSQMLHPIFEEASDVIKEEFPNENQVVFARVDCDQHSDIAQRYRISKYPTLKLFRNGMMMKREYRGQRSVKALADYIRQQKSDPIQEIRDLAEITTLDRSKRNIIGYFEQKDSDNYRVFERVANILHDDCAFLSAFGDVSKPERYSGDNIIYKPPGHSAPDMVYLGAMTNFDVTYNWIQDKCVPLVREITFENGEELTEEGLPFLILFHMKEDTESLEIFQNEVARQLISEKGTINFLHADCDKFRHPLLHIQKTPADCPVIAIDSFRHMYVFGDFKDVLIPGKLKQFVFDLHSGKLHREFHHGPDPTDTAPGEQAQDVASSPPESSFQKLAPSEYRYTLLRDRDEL
UniProt Q96GK7: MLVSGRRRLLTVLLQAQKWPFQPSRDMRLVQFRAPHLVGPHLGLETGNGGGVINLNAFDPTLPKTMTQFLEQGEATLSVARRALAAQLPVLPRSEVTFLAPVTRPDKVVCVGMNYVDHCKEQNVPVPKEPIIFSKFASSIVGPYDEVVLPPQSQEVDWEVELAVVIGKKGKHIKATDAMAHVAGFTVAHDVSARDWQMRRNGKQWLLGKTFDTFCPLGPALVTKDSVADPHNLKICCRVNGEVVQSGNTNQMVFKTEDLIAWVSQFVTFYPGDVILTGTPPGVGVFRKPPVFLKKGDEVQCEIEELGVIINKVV
UniProt Q96DZ1: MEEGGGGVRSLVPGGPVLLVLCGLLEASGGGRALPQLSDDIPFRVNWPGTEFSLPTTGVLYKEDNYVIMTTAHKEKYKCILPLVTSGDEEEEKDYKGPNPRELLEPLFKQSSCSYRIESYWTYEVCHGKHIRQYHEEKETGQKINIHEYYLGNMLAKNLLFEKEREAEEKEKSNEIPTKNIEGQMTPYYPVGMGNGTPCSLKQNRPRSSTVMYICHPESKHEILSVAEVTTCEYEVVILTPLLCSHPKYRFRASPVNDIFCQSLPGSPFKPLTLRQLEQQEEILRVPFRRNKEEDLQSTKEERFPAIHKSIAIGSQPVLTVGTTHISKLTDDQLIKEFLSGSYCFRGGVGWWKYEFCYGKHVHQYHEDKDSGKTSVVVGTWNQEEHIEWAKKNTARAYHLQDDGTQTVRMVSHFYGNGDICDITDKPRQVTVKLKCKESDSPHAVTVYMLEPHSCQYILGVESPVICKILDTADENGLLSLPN
UniProt Q9Y624, whole entry, looked up, stated change not applied: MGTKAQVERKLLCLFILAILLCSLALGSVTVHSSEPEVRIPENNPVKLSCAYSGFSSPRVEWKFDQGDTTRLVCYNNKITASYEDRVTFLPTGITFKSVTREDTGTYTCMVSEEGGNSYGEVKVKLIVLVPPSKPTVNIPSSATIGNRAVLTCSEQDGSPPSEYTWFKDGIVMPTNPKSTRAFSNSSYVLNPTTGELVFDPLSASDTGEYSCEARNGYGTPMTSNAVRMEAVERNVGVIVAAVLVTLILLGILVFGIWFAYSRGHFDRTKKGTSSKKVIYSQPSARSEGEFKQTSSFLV
UniProt Q0VG06: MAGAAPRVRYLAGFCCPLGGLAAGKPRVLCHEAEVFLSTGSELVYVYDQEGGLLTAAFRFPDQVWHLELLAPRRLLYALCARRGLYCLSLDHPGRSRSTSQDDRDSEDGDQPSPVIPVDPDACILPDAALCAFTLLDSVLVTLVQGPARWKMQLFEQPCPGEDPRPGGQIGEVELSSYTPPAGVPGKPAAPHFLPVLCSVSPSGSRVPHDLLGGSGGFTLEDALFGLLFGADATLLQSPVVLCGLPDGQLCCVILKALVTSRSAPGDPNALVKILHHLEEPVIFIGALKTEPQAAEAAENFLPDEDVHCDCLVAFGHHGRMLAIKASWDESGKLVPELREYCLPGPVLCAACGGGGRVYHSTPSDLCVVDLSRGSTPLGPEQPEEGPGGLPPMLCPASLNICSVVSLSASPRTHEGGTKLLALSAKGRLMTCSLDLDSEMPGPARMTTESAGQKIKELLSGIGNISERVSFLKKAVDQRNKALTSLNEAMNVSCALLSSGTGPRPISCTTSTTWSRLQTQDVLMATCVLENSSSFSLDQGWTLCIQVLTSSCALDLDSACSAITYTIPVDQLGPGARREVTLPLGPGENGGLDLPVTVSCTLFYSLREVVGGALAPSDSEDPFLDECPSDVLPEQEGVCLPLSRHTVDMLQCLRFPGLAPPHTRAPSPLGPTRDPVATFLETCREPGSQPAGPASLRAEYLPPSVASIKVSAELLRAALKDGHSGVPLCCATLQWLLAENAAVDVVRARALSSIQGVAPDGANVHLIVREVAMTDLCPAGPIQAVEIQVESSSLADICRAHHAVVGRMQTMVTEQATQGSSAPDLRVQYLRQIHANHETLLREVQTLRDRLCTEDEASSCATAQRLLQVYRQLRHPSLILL
UniProt Q9NPD3, whole entry, looked up: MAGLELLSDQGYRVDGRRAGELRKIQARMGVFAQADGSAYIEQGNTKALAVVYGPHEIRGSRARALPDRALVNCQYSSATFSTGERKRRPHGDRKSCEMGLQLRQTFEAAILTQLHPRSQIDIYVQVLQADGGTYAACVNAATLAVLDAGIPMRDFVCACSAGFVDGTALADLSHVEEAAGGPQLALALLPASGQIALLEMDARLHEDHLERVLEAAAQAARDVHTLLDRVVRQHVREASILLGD
UniProt O43491, whole entry, looked up: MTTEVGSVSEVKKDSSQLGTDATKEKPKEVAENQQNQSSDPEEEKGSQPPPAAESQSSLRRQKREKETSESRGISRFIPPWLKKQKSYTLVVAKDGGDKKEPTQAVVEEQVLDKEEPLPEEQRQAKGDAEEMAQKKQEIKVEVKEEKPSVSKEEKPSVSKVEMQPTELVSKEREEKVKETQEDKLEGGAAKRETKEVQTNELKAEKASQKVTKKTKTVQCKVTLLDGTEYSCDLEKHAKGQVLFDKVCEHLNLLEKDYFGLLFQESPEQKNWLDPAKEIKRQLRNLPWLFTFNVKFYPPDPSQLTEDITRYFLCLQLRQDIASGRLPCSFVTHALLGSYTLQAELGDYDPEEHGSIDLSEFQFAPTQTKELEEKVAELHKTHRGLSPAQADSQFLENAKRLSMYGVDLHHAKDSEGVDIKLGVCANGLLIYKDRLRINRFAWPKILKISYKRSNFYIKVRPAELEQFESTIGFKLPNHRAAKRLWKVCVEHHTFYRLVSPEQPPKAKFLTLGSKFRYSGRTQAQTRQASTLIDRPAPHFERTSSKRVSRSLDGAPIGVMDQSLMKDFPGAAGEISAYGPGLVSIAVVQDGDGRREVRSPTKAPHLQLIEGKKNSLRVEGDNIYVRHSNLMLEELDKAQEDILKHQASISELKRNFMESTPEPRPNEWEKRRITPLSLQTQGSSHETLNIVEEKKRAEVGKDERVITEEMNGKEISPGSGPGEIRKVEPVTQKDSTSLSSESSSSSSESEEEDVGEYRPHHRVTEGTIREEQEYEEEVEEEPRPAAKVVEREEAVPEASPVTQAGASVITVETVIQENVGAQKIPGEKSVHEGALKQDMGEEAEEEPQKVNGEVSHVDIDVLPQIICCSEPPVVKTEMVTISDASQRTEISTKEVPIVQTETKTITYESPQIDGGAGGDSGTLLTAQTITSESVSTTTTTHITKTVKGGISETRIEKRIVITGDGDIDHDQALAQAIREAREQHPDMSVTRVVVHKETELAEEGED
UniProt Q06265, whole entry, looked up: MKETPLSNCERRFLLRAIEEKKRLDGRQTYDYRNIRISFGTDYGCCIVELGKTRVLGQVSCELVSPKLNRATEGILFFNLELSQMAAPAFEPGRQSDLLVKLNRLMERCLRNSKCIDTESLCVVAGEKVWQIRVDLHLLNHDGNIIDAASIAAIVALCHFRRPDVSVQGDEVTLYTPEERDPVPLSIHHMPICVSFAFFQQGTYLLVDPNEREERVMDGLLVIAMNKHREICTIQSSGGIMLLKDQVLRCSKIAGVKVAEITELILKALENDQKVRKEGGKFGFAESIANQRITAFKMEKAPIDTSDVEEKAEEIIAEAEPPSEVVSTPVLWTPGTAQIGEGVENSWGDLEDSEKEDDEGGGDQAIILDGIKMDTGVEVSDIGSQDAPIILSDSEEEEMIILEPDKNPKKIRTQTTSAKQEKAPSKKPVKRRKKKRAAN
UniProt Q96A26: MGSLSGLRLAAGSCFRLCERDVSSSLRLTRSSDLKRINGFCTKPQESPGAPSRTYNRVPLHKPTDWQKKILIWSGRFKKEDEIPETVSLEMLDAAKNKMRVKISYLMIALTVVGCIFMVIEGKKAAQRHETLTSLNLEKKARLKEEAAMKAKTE
UniProt P13804: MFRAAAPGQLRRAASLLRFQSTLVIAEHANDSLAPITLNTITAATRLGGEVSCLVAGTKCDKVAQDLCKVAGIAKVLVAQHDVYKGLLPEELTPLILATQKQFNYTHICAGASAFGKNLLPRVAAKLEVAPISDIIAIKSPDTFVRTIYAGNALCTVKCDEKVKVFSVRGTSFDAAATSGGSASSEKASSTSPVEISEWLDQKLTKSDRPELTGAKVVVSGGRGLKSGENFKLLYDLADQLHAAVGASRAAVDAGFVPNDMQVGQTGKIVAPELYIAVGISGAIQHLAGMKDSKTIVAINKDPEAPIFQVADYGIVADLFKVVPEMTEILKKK
UniProt Q5BKY9: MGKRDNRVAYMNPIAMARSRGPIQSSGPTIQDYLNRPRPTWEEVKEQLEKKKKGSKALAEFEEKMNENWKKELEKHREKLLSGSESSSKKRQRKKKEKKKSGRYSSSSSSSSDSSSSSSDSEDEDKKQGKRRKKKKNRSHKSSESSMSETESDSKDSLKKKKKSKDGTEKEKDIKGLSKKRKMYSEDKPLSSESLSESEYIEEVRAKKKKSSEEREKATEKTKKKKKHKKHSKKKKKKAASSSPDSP
UniProt Q6P2I3: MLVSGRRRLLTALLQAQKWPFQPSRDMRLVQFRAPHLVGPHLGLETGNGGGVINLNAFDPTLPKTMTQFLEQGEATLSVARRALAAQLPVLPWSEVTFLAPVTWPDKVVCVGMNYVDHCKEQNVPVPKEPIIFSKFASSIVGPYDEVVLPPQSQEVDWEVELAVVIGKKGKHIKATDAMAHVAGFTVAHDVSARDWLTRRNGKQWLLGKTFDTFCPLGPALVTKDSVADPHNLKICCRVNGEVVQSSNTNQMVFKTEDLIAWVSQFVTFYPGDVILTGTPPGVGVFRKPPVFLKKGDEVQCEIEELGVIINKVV
UniProt Q9UNN5: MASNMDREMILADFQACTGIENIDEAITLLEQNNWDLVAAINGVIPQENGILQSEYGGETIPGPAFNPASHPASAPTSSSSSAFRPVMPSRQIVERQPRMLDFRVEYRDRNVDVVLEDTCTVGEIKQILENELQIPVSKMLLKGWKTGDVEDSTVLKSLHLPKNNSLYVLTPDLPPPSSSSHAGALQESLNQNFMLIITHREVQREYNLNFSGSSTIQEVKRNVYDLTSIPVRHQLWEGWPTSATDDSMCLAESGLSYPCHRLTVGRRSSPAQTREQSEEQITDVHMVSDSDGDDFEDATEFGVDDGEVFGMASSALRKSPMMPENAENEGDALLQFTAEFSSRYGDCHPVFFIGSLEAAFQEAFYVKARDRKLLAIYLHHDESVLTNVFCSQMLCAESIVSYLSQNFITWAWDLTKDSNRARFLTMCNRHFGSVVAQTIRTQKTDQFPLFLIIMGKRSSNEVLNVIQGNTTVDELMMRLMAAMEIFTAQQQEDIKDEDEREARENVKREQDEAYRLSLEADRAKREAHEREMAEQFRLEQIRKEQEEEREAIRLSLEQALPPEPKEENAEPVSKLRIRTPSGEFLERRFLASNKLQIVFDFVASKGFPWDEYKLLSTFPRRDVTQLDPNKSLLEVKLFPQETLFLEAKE
UniProt Q96E09: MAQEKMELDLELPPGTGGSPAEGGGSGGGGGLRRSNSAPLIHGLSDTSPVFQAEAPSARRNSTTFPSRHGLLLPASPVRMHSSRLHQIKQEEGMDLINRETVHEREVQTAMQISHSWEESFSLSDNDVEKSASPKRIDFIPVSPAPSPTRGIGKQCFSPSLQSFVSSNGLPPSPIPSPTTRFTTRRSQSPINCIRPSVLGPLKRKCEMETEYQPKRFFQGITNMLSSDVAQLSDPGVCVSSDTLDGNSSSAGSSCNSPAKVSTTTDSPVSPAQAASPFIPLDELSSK
UniProt Q9Y3B2, whole entry, looked up: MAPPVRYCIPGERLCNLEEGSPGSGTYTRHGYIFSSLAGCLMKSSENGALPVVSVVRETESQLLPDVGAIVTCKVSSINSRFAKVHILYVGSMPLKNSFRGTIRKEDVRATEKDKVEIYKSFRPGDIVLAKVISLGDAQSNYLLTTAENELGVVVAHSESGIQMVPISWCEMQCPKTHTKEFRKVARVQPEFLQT
UniProt O94905: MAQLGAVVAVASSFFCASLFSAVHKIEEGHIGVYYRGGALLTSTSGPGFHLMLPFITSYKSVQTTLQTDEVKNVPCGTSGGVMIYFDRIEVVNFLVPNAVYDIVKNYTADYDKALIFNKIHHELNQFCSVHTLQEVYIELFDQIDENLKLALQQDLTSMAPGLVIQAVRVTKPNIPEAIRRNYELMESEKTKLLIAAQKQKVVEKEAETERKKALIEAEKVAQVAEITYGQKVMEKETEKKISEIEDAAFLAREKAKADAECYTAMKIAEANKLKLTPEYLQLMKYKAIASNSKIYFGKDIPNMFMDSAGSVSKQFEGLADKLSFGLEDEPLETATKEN

The list shows a part of the results.

Compound in one test: C1=CC(=CC=C1C2=NC3=C(N2)C=C(C=C3)C(=O)N)OC4=CC=C(C=C4)Cl
Briefly: log2 fold change, soluble protein after heating vs DMSO (PISA); higher = thermal stabilisation; K562 cells, 10 uM, 30 min; active = over 0.2 and 3.5 SD of the protein, either way, in both replicates (recomputed). The essentials:
(§1)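 Quantification of soluble protein used TMTpro 16plex LC-MS/MS, with channel sums equalised. Samples were the supernatant after 21,000xg for 90 min of pooled aliquots from K562 cells (2×10^6 cells/mL) treated with 10 μM compound for 30 min, heated for 3 min over 48°C-58°C, and extracted in PBS with 0.5% NP-40 at 4°C. Values, from duplicates, describe thermal stability against control samples on a log2 fold-change scale.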
For the target ERP44 (UniProt Q9BS26), the log2 fold change is inactive: 0.001.
On the same count and under the same terms, in the case of FAHD2A (UniProt Q96GK7) it was inactive: -0.034.
Turning to ERLEC1 (UniProt Q96DZ1), the log2 fold change was inactive: 0.017.
For the target FADS1, A0A0A0MR51, the log2 fold change is inactive: -0.134.
Still for that read-out and setting: the value for F11R (UniProt Q9Y624) was inactive: 0; that for FAAP100 (UniProt Q0VG06) was inactive: 0.037.
Same read-out and setting: the value for ERCC6 (UniProt Q03468) was inactive: -0.063.
The same measure, in the same setting: the value for EXOSC4 (UniProt Q9NPD3) was inactive: 0.003; that for ESRRA (UniProt P11474) was inactive: 0.007.

Compound in the next test: C1=CC2=C(C=CC(=C2)/C=C\3/C(=O)NC(=NCC4=CC=CS4)S3)N=C1
The test is described as above. In outline: as §1
For EPB41L2 (UniProt O43491), the log2 fold change was inactive: 0.007.
Same read-out and setting: the value for EPHX1 (UniProt P07099) was inactive: -0.044; that for F5 (UniProt P12259) was inactive: -0.096.
Same read-out and setting: the value for EXOSC9 isoform 2 (UniProt Q06265) was inactive: -0.05; that for EVC2 (UniProt Q86UK5) was inactive: -0.069; that for FAM162A (UniProt Q96A26) was inactive: 0.108.
The same measure, in the same setting: in the case of FAH isoform 2 (UniProt P16930) it was inactive: 0.091; in that of ETFA (UniProt P13804), inactive: 0.031.
Turning to FAM133B (UniProt Q5BKY9), the log2 fold change was inactive: -0.062.
Still for that read-out and setting: the value for FAHD2B (UniProt Q6P2I3) was inactive: 0.078; that for FAF1 (UniProt Q9UNN5) was inactive: -0.012.
On the same count and under the same terms, in the case of FAM122A (UniProt Q96E09) it was inactive: -0.068.
Still for that read-out and setting: the value for EXOSC1 (UniProt Q9Y3B2) was inactive: 0.02; that for EXOC4 (UniProt Q96A65) was inactive: 0.09.
In the case of ERLIN2 (UniProt O94905), the log2 fold change was inactive: -0.012.
